Key:
Experiment in all cases: activity assay
Settings in all cases: X = fluorescein-dT [34 (fluorescein-dT)]; purified recombinant protein; label: fluorescein (internal dT); folded or branched DNA; letters built from the parent sequence and the stated change
[1] = biological target: Taq DNA polymerase E397V (Thermus aquaticus) (UniProt P19821)
[2] = biological target: Taq DNA polymerase E397V+E745T (Thermus aquaticus) (UniProt P19821)
[3] = biological target: Taq DNA polymerase E794C+E805I (Thermus aquaticus) (UniProt P19821)
[4] = biological target: Taq DNA polymerase G418C (Thermus aquaticus) (UniProt P19821)
[5] = biological target: Taq DNA polymerase wild type (Thermus aquaticus) (UniProt P19821)
[6] = biological target: Taq-LR1 (Taq DNA polymerase D732R) (Thermus aquaticus) (UniProt P19821)

Chains of the proteins cited; added tags and fusions are not shown.
UniProt P19821, whole entry E397V: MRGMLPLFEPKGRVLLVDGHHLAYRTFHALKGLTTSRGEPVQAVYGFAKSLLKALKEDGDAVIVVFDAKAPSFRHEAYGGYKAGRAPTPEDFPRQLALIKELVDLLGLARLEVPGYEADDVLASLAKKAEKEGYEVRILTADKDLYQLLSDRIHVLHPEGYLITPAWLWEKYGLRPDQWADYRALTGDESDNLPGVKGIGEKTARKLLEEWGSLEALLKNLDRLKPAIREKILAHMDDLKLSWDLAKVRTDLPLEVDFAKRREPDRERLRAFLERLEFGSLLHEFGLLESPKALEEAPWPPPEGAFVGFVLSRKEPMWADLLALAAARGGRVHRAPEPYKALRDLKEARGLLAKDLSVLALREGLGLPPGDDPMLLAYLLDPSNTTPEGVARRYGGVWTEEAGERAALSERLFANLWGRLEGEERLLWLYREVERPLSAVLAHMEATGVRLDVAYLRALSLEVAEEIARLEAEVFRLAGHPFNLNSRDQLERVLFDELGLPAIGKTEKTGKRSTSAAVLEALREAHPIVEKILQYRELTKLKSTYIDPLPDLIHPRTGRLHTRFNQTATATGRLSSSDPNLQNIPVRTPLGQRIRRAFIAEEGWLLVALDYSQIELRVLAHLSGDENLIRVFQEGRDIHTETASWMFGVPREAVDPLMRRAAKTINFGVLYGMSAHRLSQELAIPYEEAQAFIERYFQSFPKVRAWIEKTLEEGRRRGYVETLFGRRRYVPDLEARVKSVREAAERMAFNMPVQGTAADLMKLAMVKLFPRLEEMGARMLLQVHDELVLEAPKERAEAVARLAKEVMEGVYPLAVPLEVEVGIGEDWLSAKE
UniProt P19821, whole entry E397V/E745T: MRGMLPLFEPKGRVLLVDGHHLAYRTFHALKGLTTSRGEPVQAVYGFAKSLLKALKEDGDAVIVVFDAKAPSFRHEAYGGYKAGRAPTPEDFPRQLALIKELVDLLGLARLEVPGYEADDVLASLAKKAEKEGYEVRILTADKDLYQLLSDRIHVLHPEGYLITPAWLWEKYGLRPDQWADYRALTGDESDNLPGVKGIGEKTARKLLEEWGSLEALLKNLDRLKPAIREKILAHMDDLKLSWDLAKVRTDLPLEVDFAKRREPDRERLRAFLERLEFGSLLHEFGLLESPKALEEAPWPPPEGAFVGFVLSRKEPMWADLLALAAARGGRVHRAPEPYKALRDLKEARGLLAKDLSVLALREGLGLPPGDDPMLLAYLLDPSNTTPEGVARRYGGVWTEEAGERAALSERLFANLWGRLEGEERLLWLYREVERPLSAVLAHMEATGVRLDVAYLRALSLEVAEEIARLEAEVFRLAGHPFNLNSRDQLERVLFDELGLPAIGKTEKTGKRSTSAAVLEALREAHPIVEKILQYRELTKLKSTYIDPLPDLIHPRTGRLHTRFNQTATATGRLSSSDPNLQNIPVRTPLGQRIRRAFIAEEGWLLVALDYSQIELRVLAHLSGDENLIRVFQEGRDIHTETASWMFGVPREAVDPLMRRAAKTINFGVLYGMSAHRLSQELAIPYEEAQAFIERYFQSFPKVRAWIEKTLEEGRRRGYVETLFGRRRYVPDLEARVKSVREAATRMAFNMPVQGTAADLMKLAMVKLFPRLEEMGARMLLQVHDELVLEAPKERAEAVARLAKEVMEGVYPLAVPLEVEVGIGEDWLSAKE
UniProt P19821, whole entry E794C/E805I: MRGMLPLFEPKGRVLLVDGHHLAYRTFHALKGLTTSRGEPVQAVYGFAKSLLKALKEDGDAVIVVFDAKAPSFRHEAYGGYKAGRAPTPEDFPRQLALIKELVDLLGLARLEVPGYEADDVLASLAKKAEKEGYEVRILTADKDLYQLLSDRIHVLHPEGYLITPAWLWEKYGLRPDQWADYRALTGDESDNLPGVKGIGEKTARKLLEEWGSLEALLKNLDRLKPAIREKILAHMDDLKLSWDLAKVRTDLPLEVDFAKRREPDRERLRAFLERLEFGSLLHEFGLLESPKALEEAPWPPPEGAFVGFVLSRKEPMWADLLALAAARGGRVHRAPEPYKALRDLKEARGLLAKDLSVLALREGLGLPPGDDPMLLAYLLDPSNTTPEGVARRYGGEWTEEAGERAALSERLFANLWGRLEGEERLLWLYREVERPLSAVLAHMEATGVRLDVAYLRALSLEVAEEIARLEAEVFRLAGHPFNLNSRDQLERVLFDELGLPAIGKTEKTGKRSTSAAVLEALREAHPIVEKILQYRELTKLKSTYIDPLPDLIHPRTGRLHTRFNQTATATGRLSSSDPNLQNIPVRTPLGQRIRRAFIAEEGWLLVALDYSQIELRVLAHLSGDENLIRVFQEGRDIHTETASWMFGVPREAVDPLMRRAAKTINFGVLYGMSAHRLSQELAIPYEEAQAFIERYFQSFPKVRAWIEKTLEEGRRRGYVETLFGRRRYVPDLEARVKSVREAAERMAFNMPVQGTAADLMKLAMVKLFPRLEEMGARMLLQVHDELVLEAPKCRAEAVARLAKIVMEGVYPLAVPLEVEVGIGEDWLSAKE
UniProt P19821, whole entry G418C: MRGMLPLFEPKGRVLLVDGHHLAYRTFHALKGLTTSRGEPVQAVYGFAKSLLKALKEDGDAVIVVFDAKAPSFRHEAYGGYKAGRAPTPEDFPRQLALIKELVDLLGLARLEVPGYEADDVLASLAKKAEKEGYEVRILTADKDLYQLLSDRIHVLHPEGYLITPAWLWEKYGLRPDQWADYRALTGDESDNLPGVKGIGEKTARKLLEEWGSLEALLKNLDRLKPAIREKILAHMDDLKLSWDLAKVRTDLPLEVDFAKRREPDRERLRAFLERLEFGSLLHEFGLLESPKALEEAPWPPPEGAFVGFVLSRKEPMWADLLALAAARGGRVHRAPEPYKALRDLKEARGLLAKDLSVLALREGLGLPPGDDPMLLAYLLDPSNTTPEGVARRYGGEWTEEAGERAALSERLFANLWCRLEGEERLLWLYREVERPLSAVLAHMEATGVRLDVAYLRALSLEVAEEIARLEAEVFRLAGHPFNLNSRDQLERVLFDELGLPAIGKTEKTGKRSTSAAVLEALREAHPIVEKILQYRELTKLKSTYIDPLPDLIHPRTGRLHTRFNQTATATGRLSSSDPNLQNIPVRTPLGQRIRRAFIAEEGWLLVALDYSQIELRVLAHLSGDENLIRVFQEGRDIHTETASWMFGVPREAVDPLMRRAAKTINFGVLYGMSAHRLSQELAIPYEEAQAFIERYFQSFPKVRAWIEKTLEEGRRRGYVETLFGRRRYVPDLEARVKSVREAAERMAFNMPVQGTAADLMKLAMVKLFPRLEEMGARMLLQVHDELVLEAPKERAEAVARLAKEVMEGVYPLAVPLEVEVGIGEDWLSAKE
UniProt P19821, whole entry: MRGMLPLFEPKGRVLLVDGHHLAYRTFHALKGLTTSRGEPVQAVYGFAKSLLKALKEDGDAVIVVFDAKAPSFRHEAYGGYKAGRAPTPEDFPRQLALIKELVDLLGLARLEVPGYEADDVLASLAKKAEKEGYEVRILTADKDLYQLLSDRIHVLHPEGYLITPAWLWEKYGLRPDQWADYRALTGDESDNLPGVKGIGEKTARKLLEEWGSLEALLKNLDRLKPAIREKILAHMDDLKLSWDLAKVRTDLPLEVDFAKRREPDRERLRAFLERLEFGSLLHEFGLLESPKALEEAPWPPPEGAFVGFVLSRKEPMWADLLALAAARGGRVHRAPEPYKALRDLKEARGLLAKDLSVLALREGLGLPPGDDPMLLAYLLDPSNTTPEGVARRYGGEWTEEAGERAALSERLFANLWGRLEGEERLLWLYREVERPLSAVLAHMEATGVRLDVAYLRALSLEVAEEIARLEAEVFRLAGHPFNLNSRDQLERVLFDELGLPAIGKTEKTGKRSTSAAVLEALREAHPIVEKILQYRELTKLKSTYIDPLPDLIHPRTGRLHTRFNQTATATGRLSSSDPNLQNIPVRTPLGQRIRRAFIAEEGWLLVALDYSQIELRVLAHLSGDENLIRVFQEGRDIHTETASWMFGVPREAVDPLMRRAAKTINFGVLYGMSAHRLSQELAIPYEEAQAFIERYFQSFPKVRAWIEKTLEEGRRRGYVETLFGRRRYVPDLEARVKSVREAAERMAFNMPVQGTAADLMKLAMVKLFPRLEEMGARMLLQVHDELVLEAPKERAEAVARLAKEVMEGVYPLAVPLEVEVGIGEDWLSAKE
UniProt P19821, whole entry D732R: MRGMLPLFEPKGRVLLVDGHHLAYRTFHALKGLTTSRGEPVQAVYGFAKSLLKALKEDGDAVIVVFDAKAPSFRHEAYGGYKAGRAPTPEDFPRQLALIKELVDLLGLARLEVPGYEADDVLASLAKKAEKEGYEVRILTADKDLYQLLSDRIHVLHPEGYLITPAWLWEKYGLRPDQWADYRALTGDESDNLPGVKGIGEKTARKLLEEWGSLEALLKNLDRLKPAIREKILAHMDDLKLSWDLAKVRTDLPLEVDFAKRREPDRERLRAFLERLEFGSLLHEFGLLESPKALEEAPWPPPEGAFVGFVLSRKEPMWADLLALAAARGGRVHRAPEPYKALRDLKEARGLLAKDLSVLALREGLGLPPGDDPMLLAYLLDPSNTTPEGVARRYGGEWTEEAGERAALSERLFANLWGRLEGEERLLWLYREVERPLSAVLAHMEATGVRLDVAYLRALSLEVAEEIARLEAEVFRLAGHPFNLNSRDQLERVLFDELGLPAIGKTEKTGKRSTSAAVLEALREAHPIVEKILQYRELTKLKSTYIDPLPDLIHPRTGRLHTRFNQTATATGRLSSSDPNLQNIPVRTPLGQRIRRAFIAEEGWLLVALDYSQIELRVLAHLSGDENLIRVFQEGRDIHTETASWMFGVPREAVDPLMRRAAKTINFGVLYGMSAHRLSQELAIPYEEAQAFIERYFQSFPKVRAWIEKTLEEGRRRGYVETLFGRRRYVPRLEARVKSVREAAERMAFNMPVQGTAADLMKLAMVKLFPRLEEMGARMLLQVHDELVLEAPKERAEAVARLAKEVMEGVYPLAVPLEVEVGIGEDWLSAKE

Measured: activity on this sequence

TTTTTTTGCAGGTGACAGGTTTTTCCTGTCACCTGC [Oligo 221]
active: all assays above

Source: patent US20160177373
